Values from PubChem BioAssay AID652243 (Drosophila RNAi Screening Center, 2013)
Aim: 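Fly regulators of androgen-dependent reporter output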 (primary screen). Cells: Drosophila S2R+ cells. Reagents: long dsRNA against Drosophila genes. Duration: 72 h (48 h, then 24 h hormone). Treatment: synthetic androgen R1881 at 10 nM for 24 h. Measurement: 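Per-well raw luminescence of the androgen-driven firefly reporter and of the Renilla control, two replicates each, without normalisation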. Reading the numbers: firefly reporter light: higher = more light from androgen-responsive reporter; Renilla control light: higher = more constitutive control signal (cell number, transfection). Rule for the call: 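Across duplicate plates, a knock-down whose log firefly/Renilla ratio shifted a set fold down or up from the GFP/LacZ control mean was a hit; the downward cut appears as both 1.5 and 3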. Calls: active = hit: reporter lowered or raised; inactive = no hit.
The screen tested about 24,000 reagents; shown is an unselected part of those with a known target gene and a result. Over the whole deposit, 246 (1%) were called active. 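Plates not normalised; calls are printed but the firefly/Renilla ratio behind them is not deposited; fold cut for lowering reported inconsistently.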 The raw values are shown without normalisation. A plus sign joins genes that one reagent is predicted to hit. Not given: the amount of reagent.

target | dsRNA | firefly reporter light, replicate 1 | firefly reporter light, replicate 2 | Renilla control light, replicate 1 | Renilla control light, replicate 2 | call
dpp | DRSC00118 | 2.38e5 | 2.85e5 | 7.79e5 | 6.04e5 | inactive
dpp | DRSC00121 | 2.83e5 | 2.45e5 | 1.09e6 | 9.16e5 | inactive
dpp | DRSC00813 | 78500 | 78844 | 8.48e5 | 6.00e5 | inactive
dpp | DRSC26853 | 4.52e5 | 4.31e5 | 5.38e5 | 6.83e5 | inactive
dpp | DRSC36995 | – | – | – | – | inactive
Alg1 | DRSC15297 | 55314 | 55674 | 4.04e5 | 3.53e5 | inactive
Alg1 | DRSC29409 | 5.63e5 | 5.30e5 | 1.23e6 | 1.23e6 | inactive
CG34007 | DRSC38908 | 9.96e5 | 7.44e5 | 1.93e6 | 1.27e6 | inactive
stumps | DRSC15332 | 1.03e5 | 1.27e5 | 1.68e6 | 1.90e6 | inactive
stumps | DRSC17073 | 65169 | 50543 | 7.02e5 | 5.91e5 | inactive
Dr | DRSC17002 | 7.06e5 | 8.94e5 | 1.18e6 | 1.14e6 | inactive
Dr | DRSC22708 | 6.74e5 | 7.71e5 | 2.91e5 | 3.33e5 | inactive
alc | DRSC07062 | 3.53e5 | 3.14e5 | 3.13e6 | 2.90e6 | active
alc | DRSC21464 | 6.30e5 | 5.51e5 | 1.87e6 | 1.66e6 | inactive
alc | DRSC23316 | 5.26e5 | 6.45e5 | 1.34e6 | 1.23e6 | inactive
CG11584 | DRSC19408 | 3.26e5 | 3.41e5 | 2.88e6 | 3.38e6 | inactive
CG11584 | DRSC25623 | 5.16e5 | 5.38e5 | 7.75e5 | 6.93e5 | inactive
CG8478 | DRSC16427 | 1.27e5 | 1.51e5 | 2.09e6 | 3.65e6 | inactive
CG44325 | DRSC18039 | 3.16e5 | 2.68e5 | 2.65e6 | 2.74e6 | inactive
CG44325 | DRSC18423 | 3.30e5 | 3.11e5 | 2.30e6 | 2.25e6 | inactive
CG4459 | DRSC15582 | 3.91e5 | 3.44e5 | 3.27e6 | 3.53e6 | inactive
CG18853 + phr | DRSC27486 | 1.66e5 | 2.37e5 | 4.68e5 | 9.48e5 | inactive
Sec22 + CG13358 | DRSC18538 | 29002 | 42853 | 3.42e5 | 2.69e5 | inactive
CG9876 | DRSC04586 | 3.53e5 | 2.45e5 | 3.03e6 | 2.42e6 | inactive
CG4282 | DRSC06865 | 7.51e5 | 4.66e5 | 1.01e6 | 9.30e5 | inactive
Drsl6 | DRSC08161 | 2.17e5 | 1.82e5 | 2.81e6 | 2.43e6 | inactive
NK7.1 | DRSC25000 | 4.14e5 | 4.80e5 | 4.67e5 | 5.65e5 | inactive
CG7465 | DRSC08592 | 1.56e5 | 1.94e5 | 2.12e6 | 3.53e6 | inactive
CG7465 | DRSC22320 | 6.84e5 | 7.96e5 | 2.65e6 | 2.59e6 | inactive
CG7465 | DRSC23943 | 1.37e6 | 1.38e6 | 1.49e6 | 1.22e6 | inactive
Syx17 | DRSC08591 | 7.09e5 | 4.12e5 | 1.74e6 | 1.94e6 | inactive
CG17660 | DRSC00513 | 7.58e5 | 1.26e6 | 1.50e6 | 1.78e6 | inactive
Nepl8 | DRSC02759 | 1.84e5 | 1.01e5 | 2.08e6 | 1.33e6 | inactive
CG11396 | DRSC11654 | 1.34e5 | 94766 | 2.01e6 | 2.02e6 | inactive
HP5 | DRSC19773 | 1.40e5 | 1.20e5 | 7.42e5 | 7.30e5 | inactive
HP5 | DRSC27040 | 3.80e5 | 3.15e5 | 9.03e5 | 4.61e5 | inactive
tai | DRSC02673 | 2.12e5 | 2.66e5 | 1.30e6 | 1.34e6 | inactive
CG34451 | DRSC38840 | 1.66e6 | 1.65e6 | 2.83e6 | 2.26e6 | inactive
jet | DRSC03116 | 3.90e5 | 6.96e5 | 1.03e6 | 1.39e6 | inactive
jet | DRSC26732 | 4.27e5 | 4.11e5 | 6.44e5 | 7.92e5 | inactive

Ordered by “firefly reporter light, replicate 1” (ascending): some entries from above.
target | dsRNA | firefly reporter light, replicate 1 | firefly reporter light, replicate 2 | Renilla control light, replicate 1 | Renilla control light, replicate 2 | call
stumps | DRSC17073 | 65169 | 50543 | 7.02e5 | 5.91e5 | inactive
stumps | DRSC15332 | 1.03e5 | 1.27e5 | 1.68e6 | 1.90e6 | inactive
alc | DRSC07062 | 3.53e5 | 3.14e5 | 3.13e6 | 2.90e6 | active
alc | DRSC21464 | 6.30e5 | 5.51e5 | 1.87e6 | 1.66e6 | inactive
Dr | DRSC22708 | 6.74e5 | 7.71e5 | 2.91e5 | 3.33e5 | inactive
Dr | DRSC17002 | 7.06e5 | 8.94e5 | 1.18e6 | 1.14e6 | inactive
